{
  "sequences": {"note": "Sequences of proteins named here, by UniProt entry; tags and fusion partners are left off. A change or cut given only in a name is not applied to a line headed by its entry.", "UniProt P51450": "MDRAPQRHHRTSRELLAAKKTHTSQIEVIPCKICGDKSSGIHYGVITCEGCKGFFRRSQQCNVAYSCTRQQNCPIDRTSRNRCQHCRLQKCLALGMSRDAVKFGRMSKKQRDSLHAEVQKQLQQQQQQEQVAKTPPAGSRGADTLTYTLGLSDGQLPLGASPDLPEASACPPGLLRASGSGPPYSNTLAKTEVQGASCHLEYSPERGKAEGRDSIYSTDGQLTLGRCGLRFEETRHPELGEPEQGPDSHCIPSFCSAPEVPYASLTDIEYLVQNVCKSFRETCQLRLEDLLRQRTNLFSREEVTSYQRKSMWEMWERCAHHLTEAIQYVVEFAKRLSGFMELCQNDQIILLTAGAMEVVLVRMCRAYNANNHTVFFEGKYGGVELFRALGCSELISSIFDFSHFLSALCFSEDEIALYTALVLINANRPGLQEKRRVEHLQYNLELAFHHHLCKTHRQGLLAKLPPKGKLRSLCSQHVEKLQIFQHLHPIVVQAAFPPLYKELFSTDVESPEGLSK"},
  "source": "PubChem BioAssay AID2551",
  "about": "(National Center for Advancing Translational Sciences (NCATS), 2010)",
  "note": "“And” between values parts separate entries of the source, which are not always exact repeats. Identical values can stand only once. The whole screen tested about 310,000 compounds, of which about 17,000 (5.5%) were called active. The inconclusive results got no clear call from the source; some entries with a clear call stand among them for comparison. The call rests on the fitted dose curve; in most records, active means well fitted inhibition curve with a large enough effect; inconclusive means small, poorly fitted or top-dose-only effect, or effect the other way; inactive means no such curve, though single readings can be large or run the other way. Where the call is inconclusive, the potency comes from a doubtful curve fit. On the % scale 0 is the no-effect control and ±100 the full control effect; potency means the concentration at half of the fitted maximal effect.",
  "data": [
    {"molecular_target": "Nuclear receptor ROR-gamma (Mus musculus) (UniProt P51450)", "test": "qHTS for inhibitors of ROR gamma transcriptional activity; further: nearly all actives have a fitted effect of over 60% in size", "conditions": "Drosophila S2 Gal4-RORgamma UAS-luciferase reporter, 20 h; activity change, negative = inhibition: at 53.6 µM (top of the series)", "how_it_was_run": "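Using a luciferase readout, inhibitors were identified by reduced reporter activity in Drosophila cells coexpressing a copper-inducible Gal4–ROR gamma fusion and UAS-driven Photinus luciferase, incubated 20 hr after 700 uM copper sulfate.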", "values": [
      {"smiles": "COc1ccc(NC(=O)CSc2nnc(-c3cnccn3)n2C)cc1OC", "activity change, negative = inhibition": "inactive: -4.21%"},
      {"smiles": "CSCCC(NS(=O)(=O)c1ccc(Cl)cc1)C(=O)OCC(=O)c1c(C)[nH]c2ccccc12", "note": "(centres undefined)", "Potency": "inconclusive: 35.5 µM [inhibitor, single point]"},
      {"smiles": "Cc1cccc(NC(=O)CN2C(=O)/C(=C3\\SC(=S)N(CC4CCCO4)C3=O)c3ccccc32)c1", "note": "(centres undefined)", "activity change, negative = inhibition": "inactive: -15.1%"},
      {"smiles": "Cc1ccc(NC(=O)Nc2cccc([N+](=O)[O-])c2)cc1F", "Potency": "inconclusive: 3.16 µM [activator, partial curve]"},
      {"smiles": "CCc1ccc2nc(NC(=O)CSCc3c(C)noc3C)sc2c1", "Potency": "inconclusive: 3.55 µM [inhibitor, single point]"},
      {"smiles": "C/C(=N\\NC(=O)c1ccc2c(c1)OCO2)c1cccnc1", "Potency": "inconclusive: 35.5 µM [inhibitor, single point]"},
      {"smiles": "NC1=NC2=C(CCCC2)C2(CCCCC2)S1", "activity change, negative = inhibition": "inactive: -36.2%"},
      {"smiles": "CC(C)c1ccc(NC(=O)COC(=O)/C=C/c2cccc(Br)c2)cc1", "Potency": "inconclusive: 35.5 µM [inhibitor, single point]"},
      {"smiles": "C#CCOc1ccc(/C=C2/C(=O)NN(c3ccccc3)C2=O)cc1OC", "Potency": "inconclusive: 0.0708 µM [activator, partial curve]"},
      {"smiles": "CC(C)n1c(O)c(N=NC(=O)Cn2ccc(C(F)(F)F)n2)c2ccccc21", "activity change, negative = inhibition": "inactive: -3.96%"},
      {"smiles": "COC(=O)Cc1ccc(NC(=S)Nc2ccc(N3CCOCC3)cc2)cc1", "activity change, negative = inhibition": "inactive: -38.8%"},
      {"smiles": "CCn1c(NC(C)=O)nc2ccccc21", "Potency": "inconclusive: 35.5 µM [inhibitor, single point]"},
      {"smiles": "O=C(O)CSc1nnc(-c2ccncc2)n1-c1ccc(Cl)cc1", "activity change, negative = inhibition": "inactive: -4.66%"},
      {"smiles": "C=CCNC(=S)N1CCN(c2ccc([N+](=O)[O-])cc2)CC1", "Potency": "inconclusive: 31.6 µM [activator, single point]"},
      {"smiles": "Cn1c(NC(=O)c2cccnc2)nc2ccccc21", "Potency": "inconclusive: 5.62 µM [inhibitor, single point]"},
      {"smiles": "COc1ccc(C(=O)C2CCN(C(=O)c3ccc(OC)cc3)CC2)cc1", "Potency": "inconclusive: 11.2 µM [activator, partial curve]"},
      {"smiles": "CCN(CCCNC(=O)CCCOc1cc(=O)n(C)c2ccccc12)Cc1ccccc1", "Potency": "inconclusive: 5.62 µM [inhibitor, partial curve, poor fit]"},
      {"smiles": "CCOC(=O)c1ccc(NC(=S)NCc2ccccc2)cc1", "Potency": "active: 14.1 µM"},
      {"smiles": "O=C(/C=C/Nc1cccc(F)c1)c1ccco1", "Potency": "inconclusive: 0.355 µM [activator, full curve, poor fit]"},
      {"smiles": "CC(=O)NC1=NN(C(C)=O)C(c2ccccn2)S1", "note": "(centres undefined)", "activity change, negative = inhibition": "inactive: 6.27%"},
      {"smiles": "CCOC(=O)C1CCN(C(=O)/C=C/c2ccc3c(c2)OCO3)CC1", "Potency": "inconclusive: 3.98 µM [inhibitor, full curve, poor fit]"},
      {"smiles": "Cc1[nH]n(-c2ccccc2)c(=O)c1N=Nc1ccccc1C(=O)N1CCCCC1", "activity change, negative = inhibition": "inactive: 0.698%"},
      {"smiles": "COC(=O)C1=C(C)NC(=S)N(C(C)=O)C1c1ccccc1", "note": "(centres undefined)", "Potency": "inconclusive: 35.5 µM [inhibitor, single point]"},
      {"smiles": "COc1ccc(Cn2nnc(C(=O)Nc3ccc4c(c3)OCCO4)c2N)cc1Br", "Potency": "inconclusive: 12.6 µM [activator, single point]"},
      {"smiles": "Clc1cccc(CSc2nnc(-c3ccccn3)n2Cc2ccco2)c1", "Potency": "inconclusive: 22.4 µM [inhibitor, single point]"},
      {"smiles": "O=S(=O)(NCCSc1ccc(Cl)cc1)c1ccc2c(c1)OCCO2", "Potency": "inconclusive: 22.4 µM [activator, single point]"},
      {"smiles": "COc1ccc(Cn2nnnc2C(c2cc3cc(C)cc(C)c3[nH]c2=O)N2CCOCC2)cc1", "note": "(centres undefined)", "Potency": "inconclusive: 35.5 µM [inhibitor, single point]"},
      {"smiles": "CCOC(=O)C1(Cc2cccc(OC)c2)CCN(Cc2cccc(OC)c2O)CC1", "Potency": "inconclusive: 35.5 µM [activator, single point]"},
      {"smiles": "CC(=O)c1ccc(NC(=O)C(C)N2CCN(C/C=C/c3ccccc3)CC2)cc1", "note": "(centres undefined)", "activity change, negative = inhibition": "inactive: -10.9%"},
      {"smiles": "CCC(CC)C(=O)Nc1nnc(S(=O)(=O)N2c3ccccc3CC2C)s1", "note": "(centres undefined)", "activity change, negative = inhibition": "inactive: -7.49%"},
      {"smiles": "COc1ccc(NC(=O)Nc2sc(NS(=O)(=O)c3ccccc3)nc2C)cc1", "Potency": "inconclusive: 35.5 µM [inhibitor, single point]"},
      {"smiles": "CC(C)OC(=O)c1ccc(NC(=O)c2cncc(Br)c2)cc1", "Potency": "inconclusive: 17.8 µM [activator, partial curve]"},
      {"smiles": "CCOC(=O)c1ccc(NC(=O)c2nc[nH]c2C(=O)N[C@@H](Cc2ccccc2)C(=O)OC(C)(C)C)cc1", "Potency": "active: 2.82 µM"},
      {"smiles": "O=c1oc2ccc(Cl)cc2nc1/C=C(\\O)c1cccs1", "Potency": "active: 8.91 µM"},
      {"smiles": "COc1ccc(C(=O)NC(Nc2ccccc2)C(Cl)(Cl)Cl)cc1", "note": "(centres undefined)", "Potency": "inconclusive: 35.5 µM [activator, single point]"},
      {"smiles": "O=C(COC(=O)c1cc(NS(=O)(=O)c2cccs2)ccc1O)Nc1ccccc1", "Potency": "inconclusive: 17.8 µM [activator, single point]"},
      {"smiles": "COc1cc2c(c(O)c1OC)-c1c(cc(OC)c(OC)c1O)[C@@H](OC(=O)c1ccccc1)[C@@](C)(O)[C@@H](C)[C@@H]2OC(C)=O", "activity change, negative = inhibition": "inactive: 8.05%"},
      {"smiles": "COC(=O)Oc1ccc(/C=N/NS(=O)(=O)c2ccccc2)cc1OC", "Potency": "inconclusive: 15.8 µM [activator, single point]"},
      {"smiles": "Cc1ccc(C(C)C)c(OCC(=O)N/N=C/c2cccn2C)c1", "Potency": "inconclusive: 35.5 µM [inhibitor, single point]"},
      {"smiles": "N/C(=N\\c1nc(C(F)(F)F)cc(=O)[nH]1)Nc1ccc(Cl)cc1", "Potency": "inconclusive: 35.5 µM [inhibitor, single point]"},
      {"smiles": "Cc1ccc(NC(=O)c2ccc(OCC3CCCO3)cc2)c(C)c1", "note": "(centres undefined)", "Potency": "inconclusive: 20 µM [activator, single point]"},
      {"smiles": "CCN(CC)CCn1c(NC(=O)c2ccc(C)cc2)nc2ccccc21", "Potency": "inconclusive: 1.26 µM [inhibitor, single point]"},
      {"smiles": "CCOC(=O)c1[nH]c2c(c1-c1ccc(OC)cc1)C(=O)CC(c1ccc(OC)c(OC)c1)C2", "note": "(centres undefined)", "Potency": "inconclusive: 11.2 µM [activator, partial curve]"},
      {"smiles": "COc1ccc(C([O-])=Nc2ccc[n+](-c3nc4ccccc4nc3NS(=O)(=O)c3ccccc3)c2)cc1", "Potency": "inconclusive: 11.2 µM [activator, partial curve]"},
      {"smiles": "O=C(O)c1ccccc1Nc1cc(Cl)cc(Cl)c1", "activity change, negative = inhibition": "inactive: 40.3%"},
      {"smiles": "NS(=O)(=O)c1ccc(NC2=CC(c3ccc([N+](=O)[O-])cc3)N(c3ccc(S(N)(=O)=O)cc3)C2=O)cc1", "note": "(centres undefined)", "Potency": "inconclusive: 8.91 µM [activator, partial curve]"},
      {"smiles": "Cn1c(/C=N/Nc2nc3ccccc3[nH]2)nc2ccccc21", "Potency": "active: 4.47 µM"},
      {"smiles": "COc1ccc(C2=NN(CCC(=O)NCc3cccs3)C(=O)CC2)cc1", "activity change, negative = inhibition": "inactive: -4.98%"},
      {"smiles": "O=C(NCCCN1CCC(Cc2ccccc2)CC1)C1CC(=O)N(C2CCCC2)C1", "note": "(centres undefined)", "Potency": "inconclusive: 0.005 µM [inhibitor, full curve, poor fit]"},
      {"smiles": "COc1ccc(/C=C2\\CCC/C(=C\\C=N\\N(C)C)C2=O)cc1", "Potency": "inconclusive: 11.2 µM [inhibitor, partial curve, poor fit]"},
      {"smiles": "Fc1cccc2sc(Nc3nc4cc5c(cc4s3)OCO5)nc12", "Potency": "active: 6.31 µM"},
      {"smiles": "COc1ccc(CCCc2n[nH]c(=S)n2C)cc1C", "Potency": "active: 5.01 µM"},
      {"smiles": "CC(C)(C)OC(=O)NCCCC[C@H](NC(=O)c1nc[nH]c1C(=O)N1CCc2ccccc2C1)C(=O)OC(C)(C)C", "Potency": "inconclusive: 14.1 µM [inhibitor, single point]"},
      {"smiles": "Clc1ccc(CN2C3=NCCN3c3ccccc32)cc1", "Potency": "inconclusive: 10 µM [inhibitor, partial curve]"},
      {"smiles": "c1ccc2c(c1)CC/C2=N/Nc1nc2ccccc2[nH]1", "Potency": "active: 1.12 µM"},
      {"smiles": "O=C(/C=C\\Nc1ccc2c(c1)OCO2)c1ccccn1", "Potency": "active: 1.12 µM"},
      {"smiles": "C=C1CC[C@H](O)C/C1=C/C=C1\\CCC[C@]2(C)[C@@H]([C@H](C)CCCC(C)(C)O)CC[C@@H]12", "Potency": "inconclusive: 7.08 µM [inhibitor, single point] and inconclusive: 3.98 µM [inhibitor, partial curve]"},
      {"smiles": "Nc1c(C(=O)O)sc2nc(-c3ccccc3)cc(-c3ccc(Cl)cc3)c12", "Potency": "inconclusive: 12.6 µM [activator, single point]"},
      {"smiles": "COc1cc(CC(=O)N(C)CC(=O)Nc2cc(C)ccc2C)cc(OC)c1OC", "activity change, negative = inhibition": "inactive: -4.18%"},
      {"smiles": "Cc1[nH]c2ccccc2c1C(=O)C(=O)NCc1cccs1", "Potency": "inconclusive: 28.2 µM [activator, single point]"},
      {"smiles": "COc1cccc(/C=N/NC(=O)CNC(=O)C(c2ccccc2)c2ccccc2)c1O", "Potency": "active: 1.78 µM"},
      {"smiles": "C=CCN(CC=C)C(=S)NC(=O)c1ccc(C)c(Br)c1", "Potency": "active: 0.282 µM"},
      {"smiles": "O=C(N/N=C/c1cn(-c2ccccc2)nc1-c1cccs1)c1ccncc1", "Potency": "active: 1.26 µM"},
      {"smiles": "Cc1cc(C(=O)OCC(=O)NC2CCS(=O)(=O)C2)c(C)n1-c1ccccc1", "note": "(centres undefined)", "Potency": "inconclusive: 7.08 µM [activator, partial curve, poor fit]"},
      {"smiles": "CN(C)S(=O)(=O)N1CCN(CC(O)COc2ccc3cc(Br)ccc3c2)CC1", "note": "(centres undefined)", "activity change, negative = inhibition": "inactive: 63.3%"},
      {"smiles": "CSc1nc(=S)cc(C)[nH]1", "Potency": "inconclusive: 7.08 µM [inhibitor, partial curve]"},
      {"smiles": "CCC(=O)N/N=C/c1ccc(-c2ccc([N+](=O)[O-])cc2)o1", "activity change, negative = inhibition": "inactive: -9.13%"},
      {"smiles": "COc1ccc(C(=O)/C=C/c2cccnc2)c(OC)c1", "Potency": "inconclusive: 12.6 µM [inhibitor, single point]"},
      {"smiles": "c1ccc(Cn2nnc3c(NCCN4CCOCC4)ncnc32)cc1", "Potency": "inconclusive: 0.141 µM [inhibitor, full curve, poor fit]"}
    ]}
  ]
}
